Values quoted from earlier work, collected in PMC4749642, “Evaluation of anticonvulsant and antinociceptive properties of new N-Mannich bases derived from pyrrolidine-2,5-dione and 3-methylpyrrolidine-2,5-dione” (Naunyn-Schmiedeberg's Archives of Pharmacology, 2015).

Tests used:
mice [1] = system: mice; set-up: method as in Rybka et al. [2014]; Kamiński et al. [2015a]; settings: ref Rybka et al. [2014]; Kamiński et al. [2015a]; cited from earlier work
mice [2] = settings: ref Rybka et al. [2014]; Kamiński et al. [2015a]; cited from earlier work

Compound | protective index (PI) in the MES test (mice [1]) | protective index (PI) in the s.c.PTZ test (mice [2])
O=C1NC(=O)C(c2ccccc2)(c2ccccc2)N1 [Phenytoin, reference compound] | 7.74 | 
CC1CC(=O)N(CN2CCN(c3ccc(Cl)c(Cl)c3)CC2)C1=O (centres unmarked) [Compound 12, N-[{4-(3,4-dichlorophenyl)-piperazin-1-yl}-methyl]-3-methylpyrrolidine-2,5-dione] | > 31 and 31 | > 3.73
O=C1CCC(=O)N1CN1CCN(c2ccc(Cl)c(Cl)c2)CC1 [Compound 23, N-[{4-(3,4-dichlorophenyl)-piperazin-1-yl}-methyl]-pyrrolidine-2,5-dione] | > 13 and 13 | > 3.88
CCC1(C)CC(=O)NC1=O (centres unmarked) [ethosuximide, reference compound] |  | 2.5
CCCC(CCC)C(=O)O [valproic acid, reference compound] | 1.5 | 1.8

Values joined by “and” are separate entries in the source; they are usually repeats but may differ in a detail not shown here. Equal values may be shown once.
